# Laboratory results as given in the supplement of paper PMC12067093, “Discovery and optimisation of a covalent ligand for TRIM25 and its application to targeted protein ubiquitination” (Chemical Science, 2025).
# By UniProt entry, the sequences of proteins in these tests, tags left out. Where a name states a change or a piece, a line headed by the entry shows the natural chain unless it says otherwise.
# UniProt Q99714: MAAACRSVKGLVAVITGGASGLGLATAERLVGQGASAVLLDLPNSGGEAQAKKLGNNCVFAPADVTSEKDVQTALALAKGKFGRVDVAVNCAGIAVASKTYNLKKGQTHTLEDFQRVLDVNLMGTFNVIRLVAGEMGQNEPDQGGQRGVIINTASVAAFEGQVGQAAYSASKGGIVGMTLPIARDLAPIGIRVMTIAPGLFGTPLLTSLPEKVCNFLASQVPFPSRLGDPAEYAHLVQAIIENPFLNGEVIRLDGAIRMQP
# UniProt P28845: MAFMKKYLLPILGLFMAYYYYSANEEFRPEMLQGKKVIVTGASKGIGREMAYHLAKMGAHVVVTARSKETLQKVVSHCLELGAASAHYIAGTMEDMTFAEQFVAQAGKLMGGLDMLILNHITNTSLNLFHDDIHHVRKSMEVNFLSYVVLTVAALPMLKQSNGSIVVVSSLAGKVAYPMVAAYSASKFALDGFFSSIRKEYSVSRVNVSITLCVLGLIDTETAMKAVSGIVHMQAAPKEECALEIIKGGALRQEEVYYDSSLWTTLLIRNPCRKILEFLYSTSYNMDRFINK
# UniProt P51991: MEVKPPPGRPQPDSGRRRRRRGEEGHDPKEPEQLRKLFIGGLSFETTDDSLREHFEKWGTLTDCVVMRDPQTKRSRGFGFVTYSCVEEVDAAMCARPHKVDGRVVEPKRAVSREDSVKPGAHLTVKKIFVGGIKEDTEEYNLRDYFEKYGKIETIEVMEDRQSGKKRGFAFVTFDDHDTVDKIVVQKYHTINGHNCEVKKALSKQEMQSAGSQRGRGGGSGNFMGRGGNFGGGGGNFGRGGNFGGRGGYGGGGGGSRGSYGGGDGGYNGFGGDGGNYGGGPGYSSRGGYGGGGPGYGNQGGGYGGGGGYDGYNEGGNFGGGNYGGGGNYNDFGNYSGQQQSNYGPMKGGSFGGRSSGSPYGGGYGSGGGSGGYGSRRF
# UniProt P00738: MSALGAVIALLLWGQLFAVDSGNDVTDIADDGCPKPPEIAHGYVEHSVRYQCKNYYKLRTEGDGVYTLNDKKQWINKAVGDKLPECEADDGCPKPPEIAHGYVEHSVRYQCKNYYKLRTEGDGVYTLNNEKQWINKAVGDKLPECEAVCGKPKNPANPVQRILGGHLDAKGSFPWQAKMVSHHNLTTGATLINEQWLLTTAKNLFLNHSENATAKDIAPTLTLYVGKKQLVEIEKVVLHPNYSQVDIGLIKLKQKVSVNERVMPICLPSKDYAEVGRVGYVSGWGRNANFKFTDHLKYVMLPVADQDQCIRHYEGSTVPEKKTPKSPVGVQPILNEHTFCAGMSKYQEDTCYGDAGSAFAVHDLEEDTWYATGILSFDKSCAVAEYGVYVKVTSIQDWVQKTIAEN
# UniProt Q86YV9: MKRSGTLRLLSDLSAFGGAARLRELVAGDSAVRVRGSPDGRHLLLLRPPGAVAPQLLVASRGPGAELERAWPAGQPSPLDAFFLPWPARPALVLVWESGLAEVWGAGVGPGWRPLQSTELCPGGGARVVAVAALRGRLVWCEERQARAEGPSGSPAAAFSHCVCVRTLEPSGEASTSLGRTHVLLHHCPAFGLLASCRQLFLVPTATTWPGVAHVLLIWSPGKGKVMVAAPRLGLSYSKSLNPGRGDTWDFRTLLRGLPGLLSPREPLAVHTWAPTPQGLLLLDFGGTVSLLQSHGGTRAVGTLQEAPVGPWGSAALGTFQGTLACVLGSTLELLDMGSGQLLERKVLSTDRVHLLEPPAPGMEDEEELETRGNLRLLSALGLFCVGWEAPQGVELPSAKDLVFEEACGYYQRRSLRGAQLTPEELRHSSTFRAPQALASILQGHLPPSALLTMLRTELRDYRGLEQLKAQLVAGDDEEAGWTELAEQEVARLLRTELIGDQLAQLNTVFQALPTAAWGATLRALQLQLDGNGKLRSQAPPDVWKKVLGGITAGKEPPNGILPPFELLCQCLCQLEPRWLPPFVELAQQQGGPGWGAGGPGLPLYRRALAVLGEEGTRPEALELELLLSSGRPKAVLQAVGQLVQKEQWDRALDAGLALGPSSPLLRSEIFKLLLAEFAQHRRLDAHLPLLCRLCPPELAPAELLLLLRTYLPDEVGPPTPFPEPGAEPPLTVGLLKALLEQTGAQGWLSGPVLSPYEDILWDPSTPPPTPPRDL
# UniProt P34932: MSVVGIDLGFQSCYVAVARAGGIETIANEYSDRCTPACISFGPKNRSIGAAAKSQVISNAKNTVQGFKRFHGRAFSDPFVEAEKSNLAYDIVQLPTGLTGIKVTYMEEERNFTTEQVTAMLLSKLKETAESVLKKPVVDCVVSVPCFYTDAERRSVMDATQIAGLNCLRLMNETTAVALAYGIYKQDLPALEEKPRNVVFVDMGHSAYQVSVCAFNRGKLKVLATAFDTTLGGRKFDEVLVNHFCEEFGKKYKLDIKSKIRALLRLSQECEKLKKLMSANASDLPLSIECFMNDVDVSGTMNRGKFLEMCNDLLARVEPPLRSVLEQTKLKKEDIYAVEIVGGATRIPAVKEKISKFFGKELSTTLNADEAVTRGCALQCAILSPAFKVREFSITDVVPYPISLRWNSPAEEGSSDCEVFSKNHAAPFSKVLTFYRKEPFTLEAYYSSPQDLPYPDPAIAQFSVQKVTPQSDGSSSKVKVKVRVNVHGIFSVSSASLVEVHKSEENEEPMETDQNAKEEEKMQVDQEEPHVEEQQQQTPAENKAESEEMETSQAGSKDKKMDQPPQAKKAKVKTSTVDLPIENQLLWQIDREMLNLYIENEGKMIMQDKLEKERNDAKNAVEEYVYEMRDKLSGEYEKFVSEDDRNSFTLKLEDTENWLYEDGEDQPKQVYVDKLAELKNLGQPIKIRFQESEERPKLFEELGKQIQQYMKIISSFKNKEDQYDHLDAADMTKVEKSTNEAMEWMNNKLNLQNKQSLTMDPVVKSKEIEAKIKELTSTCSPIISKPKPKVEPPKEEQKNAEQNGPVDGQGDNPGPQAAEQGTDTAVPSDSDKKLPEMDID
# UniProt Q1KMD3: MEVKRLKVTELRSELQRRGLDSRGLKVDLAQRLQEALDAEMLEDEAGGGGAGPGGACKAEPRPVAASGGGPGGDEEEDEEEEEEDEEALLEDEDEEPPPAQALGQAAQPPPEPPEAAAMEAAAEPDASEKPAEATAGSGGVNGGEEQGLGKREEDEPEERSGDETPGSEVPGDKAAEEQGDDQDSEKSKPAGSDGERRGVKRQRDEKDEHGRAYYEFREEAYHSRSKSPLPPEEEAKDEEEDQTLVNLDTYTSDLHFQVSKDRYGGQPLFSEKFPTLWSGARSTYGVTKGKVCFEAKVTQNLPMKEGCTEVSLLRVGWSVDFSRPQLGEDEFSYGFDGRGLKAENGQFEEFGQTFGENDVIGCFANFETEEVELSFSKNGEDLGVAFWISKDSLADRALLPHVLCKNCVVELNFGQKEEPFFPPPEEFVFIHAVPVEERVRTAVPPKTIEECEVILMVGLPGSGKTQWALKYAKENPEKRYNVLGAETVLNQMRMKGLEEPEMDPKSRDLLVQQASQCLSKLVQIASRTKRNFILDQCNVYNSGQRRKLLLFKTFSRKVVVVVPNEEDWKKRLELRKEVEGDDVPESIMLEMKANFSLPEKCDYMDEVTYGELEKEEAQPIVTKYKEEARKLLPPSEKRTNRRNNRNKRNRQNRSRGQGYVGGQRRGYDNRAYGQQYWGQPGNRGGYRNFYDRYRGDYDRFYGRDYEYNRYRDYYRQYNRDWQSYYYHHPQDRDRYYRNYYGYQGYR
# UniProt P11142, whole entry, looked up: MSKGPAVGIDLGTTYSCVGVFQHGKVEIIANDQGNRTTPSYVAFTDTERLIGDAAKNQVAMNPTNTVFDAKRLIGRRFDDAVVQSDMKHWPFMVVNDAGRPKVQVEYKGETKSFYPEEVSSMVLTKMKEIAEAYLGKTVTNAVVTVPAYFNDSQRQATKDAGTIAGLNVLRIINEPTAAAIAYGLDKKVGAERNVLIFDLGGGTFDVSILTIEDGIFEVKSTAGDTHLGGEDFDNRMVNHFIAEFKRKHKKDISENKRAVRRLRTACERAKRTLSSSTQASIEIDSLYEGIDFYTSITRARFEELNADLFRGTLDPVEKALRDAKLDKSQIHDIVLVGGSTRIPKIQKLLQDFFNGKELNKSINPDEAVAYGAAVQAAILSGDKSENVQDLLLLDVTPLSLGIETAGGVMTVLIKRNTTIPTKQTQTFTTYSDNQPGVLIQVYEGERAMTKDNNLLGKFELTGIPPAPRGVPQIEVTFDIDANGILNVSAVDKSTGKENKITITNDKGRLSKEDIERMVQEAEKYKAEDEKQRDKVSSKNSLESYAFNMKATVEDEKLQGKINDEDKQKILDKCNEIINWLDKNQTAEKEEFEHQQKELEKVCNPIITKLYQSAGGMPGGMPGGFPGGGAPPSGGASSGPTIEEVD
# UniProt P51659: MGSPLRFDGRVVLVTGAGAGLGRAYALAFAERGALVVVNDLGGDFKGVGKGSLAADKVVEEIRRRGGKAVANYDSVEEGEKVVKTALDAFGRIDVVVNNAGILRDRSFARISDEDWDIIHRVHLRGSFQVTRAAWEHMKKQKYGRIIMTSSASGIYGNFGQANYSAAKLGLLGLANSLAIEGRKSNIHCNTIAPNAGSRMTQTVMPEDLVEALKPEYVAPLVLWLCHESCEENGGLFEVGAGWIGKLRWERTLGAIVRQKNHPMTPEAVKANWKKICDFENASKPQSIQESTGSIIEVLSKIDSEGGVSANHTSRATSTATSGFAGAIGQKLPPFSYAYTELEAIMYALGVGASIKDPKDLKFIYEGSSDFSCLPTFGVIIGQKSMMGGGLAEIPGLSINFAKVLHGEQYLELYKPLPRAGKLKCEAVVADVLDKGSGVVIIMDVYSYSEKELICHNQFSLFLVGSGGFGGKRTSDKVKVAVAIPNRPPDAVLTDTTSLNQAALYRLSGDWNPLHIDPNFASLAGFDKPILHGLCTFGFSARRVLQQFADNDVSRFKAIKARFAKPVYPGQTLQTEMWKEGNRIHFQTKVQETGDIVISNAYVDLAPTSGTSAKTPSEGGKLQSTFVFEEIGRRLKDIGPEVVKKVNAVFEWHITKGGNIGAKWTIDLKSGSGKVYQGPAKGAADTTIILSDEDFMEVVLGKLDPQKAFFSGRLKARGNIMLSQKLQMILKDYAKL
# UniProt P09651: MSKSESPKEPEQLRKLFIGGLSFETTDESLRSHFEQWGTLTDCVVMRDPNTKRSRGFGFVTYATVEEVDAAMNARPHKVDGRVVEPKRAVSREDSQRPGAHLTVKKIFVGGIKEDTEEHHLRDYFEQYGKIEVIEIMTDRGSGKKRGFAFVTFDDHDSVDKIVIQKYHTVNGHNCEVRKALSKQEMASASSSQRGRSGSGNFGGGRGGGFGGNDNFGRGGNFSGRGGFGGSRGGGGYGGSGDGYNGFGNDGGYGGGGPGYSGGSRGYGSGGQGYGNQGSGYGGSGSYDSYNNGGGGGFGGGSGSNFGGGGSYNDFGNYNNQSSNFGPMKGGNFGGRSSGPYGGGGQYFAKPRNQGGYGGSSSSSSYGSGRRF
# UniProt P08238, whole entry, looked up: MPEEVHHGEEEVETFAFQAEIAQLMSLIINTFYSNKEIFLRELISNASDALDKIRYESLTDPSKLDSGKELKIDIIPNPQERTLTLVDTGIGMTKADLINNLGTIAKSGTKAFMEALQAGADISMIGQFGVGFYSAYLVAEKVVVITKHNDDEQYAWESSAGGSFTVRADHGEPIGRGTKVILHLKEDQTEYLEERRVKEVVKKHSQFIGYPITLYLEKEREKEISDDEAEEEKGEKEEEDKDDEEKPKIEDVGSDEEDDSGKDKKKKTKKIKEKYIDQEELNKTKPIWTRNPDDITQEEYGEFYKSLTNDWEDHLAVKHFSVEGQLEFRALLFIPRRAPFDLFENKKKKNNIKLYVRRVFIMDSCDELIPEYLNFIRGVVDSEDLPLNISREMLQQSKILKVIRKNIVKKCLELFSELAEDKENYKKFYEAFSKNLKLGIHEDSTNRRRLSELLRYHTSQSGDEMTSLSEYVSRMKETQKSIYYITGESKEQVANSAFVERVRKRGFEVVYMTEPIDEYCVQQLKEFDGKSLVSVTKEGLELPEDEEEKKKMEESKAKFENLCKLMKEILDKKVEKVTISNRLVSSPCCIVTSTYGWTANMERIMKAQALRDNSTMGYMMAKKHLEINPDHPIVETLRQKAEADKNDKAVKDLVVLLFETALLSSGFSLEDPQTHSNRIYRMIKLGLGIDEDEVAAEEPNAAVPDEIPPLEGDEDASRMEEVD
# UniProt P22626: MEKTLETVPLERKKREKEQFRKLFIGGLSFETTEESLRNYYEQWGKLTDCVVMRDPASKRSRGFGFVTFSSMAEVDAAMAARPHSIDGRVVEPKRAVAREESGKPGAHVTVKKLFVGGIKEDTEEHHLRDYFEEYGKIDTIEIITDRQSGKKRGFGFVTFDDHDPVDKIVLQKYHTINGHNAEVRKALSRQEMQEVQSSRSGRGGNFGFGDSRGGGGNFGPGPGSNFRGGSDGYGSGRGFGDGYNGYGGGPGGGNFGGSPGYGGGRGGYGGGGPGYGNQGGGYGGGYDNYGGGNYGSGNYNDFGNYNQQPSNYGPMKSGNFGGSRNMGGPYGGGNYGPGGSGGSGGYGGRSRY
# The list shows a part of the results.
# Compound: Cc1cc(ccc1-c1ccccc1)C(=O)N1CCCN(CC1)C(=O)CCl [compound 10]
# Assay: probe-labelled cysteine peptide fold change vs DMSO (competition) (log2 fold change); higher = less target engagement (more negative = stronger competition)
# Conditions: THP-1, incubation time: 4 h
# 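Also: competitive profiling in live THP-1 cells: cysteine peptides tagged with an iodoacetamide desthiobiotin (IA-DTB) probe, intensity after compound treatment relative to DMSO-treated cells.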
Target,probe-labelled cysteine peptide fold change (10 µM),probe-labelled cysteine peptide fold change (50 µM)
HSD17B10_Q99714_91_FGRVDVAVNCAGIAVASK (UniProt Q99714),-0.04,-0.288
HSP90AA1_P07900_598_LVTSPCCIVTSTYGWTANMER (UniProt P07900),-0.00946,0.102
HSD11B1_P28845_241_EECALEIIK (UniProt P28845),-0.15,0.0682
HNRNPA3_P51991_64_WGTLTDCVVMRDPQTK (UniProt P51991),0.0469,-0.0934
HP_P00738_340_SPVGVQPILNEHTFCAGMSK (UniProt P00738),-0.196,0.49
HPS6_Q86YV9_141_LVWCEER (UniProt Q86YV9),-0.106,-0.266
HSPA4_P34932_290_KLMSANASDLPLSIECFMNDVDVSGTMNR (UniProt P34932),0.0906,-0.566
HNRNPUL2_Q1KMD3_602_CDYMDEVTYGELEK (UniProt Q1KMD3),-0.1,0.00664
HSPA8_P11142_17_SKGPAVGIDLGTTYSCVGVFQHGK (UniProt P11142),-0.0412,-0.434
HSD17B4_P51659_189_SNIHCNTIAPNAGSR (UniProt P51659),-0.0918,-0.0136
HNRNPA1_P09651_175_YHTVNGHNCEVRK (UniProt P09651),-0.215,-0.251
HSP90AB1_P08238_366_RVFIMDSCDELIPEYLNFIR (UniProt P08238),-0.0427,-0.153
HTT_P42858_1708_IQELSFSPYLISCTVINR (UniProt P42858),-0.256,0.155
HNRNPA2B1_P22626_50_LTDCVVMR (UniProt P22626),-0.0119,0.0662
